From patent US12729225B2, “Non-canonical SWI/SNF complex and uses thereof” (Dana-Farber Cancer Institute, Inc., priority 2018, dated 2026)

Tested on: mSWI/SNF complexes
Test: mSWI/SNF complex purification with HA-tagged baits and mass spectrometry (peptide counts)
Design: species or system human
[1] = 293_HA-BRD7: HA-BRD7 bait purification, total peptide count per co-purified protein
[2] = 293_HA-BRD7: HA-BRD7 bait purification, unique peptide count per co-purified protein

B1: EPB41L3 (protein, UniProt Q9Y2J2 1-1087, looked up)
Band 4.1-like protein 3: MTTESGSDSESKPDQEAEPQEAAGAQGRAGAPVPEPPKEEQQQALEQFAAAAAHSTPVRREVTDKEQEFAARAAKQLEYQQLEDDKLSQKSSSSKLSRSPLKIVKKPKSMQCKVILLDGSEYTCDVEKRSRGQVLFDKVCEHLNLLEKDYFGLTYRDAENQKNWLDPAKEIKKQVRSGAWHFSFNVKFYPPDPAQLSEDITRYYLCLQLRDDIVSGRLPCSFVTLALLGSYTVQSELGDYDPDECGSDYISEFRFAPNHTKELEDKVIELHKSHRGMTPAEAEMHFLENAKKLSMYGVDLHHAKDSEGVEIMLGVCASGLLIYRDRLRINRFAWPKVLKISYKRNNFYIKIRPGEFEQFESTIGFKLPNHRAAKRLWKVCVEHHTFFRLLLPEAPPKKFLTLGSKFRYSGRTQAQTRRASALIDRPAPYFERSSSKRYTMSRSLDGEVGTGQYATTKGISQTNLITTVTPEKKAEEERDEEEDKRRKGEEVTPISAIRHEGKSPGLGTDSCPLSPPSTHCAPTSPTELRRRCKENDCKLPGYEPSRAEHLPGEPALDSDGPGRPYLGDQDVAFSYRQQTGKGTTLFSFSLQLPESFPSLLDDDGYLSFPNLSETNLLPQSLQHYLPIRSPSLVPCFLFIFFFLLSASFSVPYALTLSFPLALCLCYLEPKAASLSASLDNDPSDSSEEETDSERTDTAADGETTATESDQEEDAELKAQELEKTQDDLMKHQTNISELKRTFLETSTDTAVTNEWEKRLSTSPVRLAARQEDAPMIEPLVPEETKQSSGEKLMDGSEIFSLLESARKPTEFIGGVTSTSQSWVQKMETKTESSGIETEPTVHHLPLSTEKVVQETVLVEERRVVHASGDASYSAGDSGDAAAQPAFTGIKGKEGSALTEGAKEEGGEEVAKAVLEQEETAAASRERQEEQSAAIHISETLEQKPHFESSTVKTETISFGSVSPGGVKLEISTKEVPVVHTETKTITYESSQVDPGTDLEPGVLMSAQTITSETTSTTTTTHITKTVKGGISETRIEKRIVITGDADIDHDQALAQAIKEAKEQHPDMSVTKVVVHKETEITPEDGED
[1]
  Total: 5
[2]
  Unique: 5
293_HA-BRD7 bait purification, mass spectrometry, total peptides per co-purified protein
  Total: 1
293_HA-BRD7 bait purification, mass spectrometry, unique peptides per co-purified protein
  Unique: 1

B2: SLC3A2 (protein, UniProt P08195 1-630, looked up)
Amino acid transporter heavy …: MELQPPEASIAVVSIPRQLPGSHSEAGVQGLSAGDDSELGSHCVAQTGLELLASGDPLPSASQNAEMIETGSDCVTQAGLQLLASSDPPALASKNAEVTGTMSQDTEVDMKEVELNELEPEKQPMNAASGAAMSLAGAEKNGLVKIKVAEDEAEAAAAAKFTGLSKEELLKVAGSPGWVRTRWALLLLFWLGWLGMLAGAVVIIVRAPRCRELPAQKWWHTGALYRIGDLQAFQGHGAGNLAGLKGRLDYLSSLKVKGLVLGPIHKNQKDDVAQTDLLQIDPNFGSKEDFDSLLQSAKKKSIRVILDLTPNYRGENSWFSTQVDTVATKVKDALEFWLQAGVDGFQVRDIENLKDASSFLAEWQNITKGFSEDRLLIAGTNSSDLQQILSLLESNKDLLLTSSYLSDSGSTGEHTKSLVTQYLNATGNRWCSWSLSQARLLTSFLPAQLLRLYQLMLFTLPGTPVFSYGDEIGLDAAALPGQPMEAPVMLWDESSFPDIPGAVSANMTVKGQSEDPGSLLSLFRRLSDQRSKERSLLHGDFHAFSAGPGLFSYIRHWDQNERFLVVLNFGDVGLSAGLQASDLPASASLPAKADLLLSTQPGREEGSPLELERLKLEPHEGLLLRFPYAA
[1]
  Total: 5
[2]
  Unique: 5

B3: ETFB (protein, UniProt P38117 2-255, looked up)
Electron transfer …: AELRVLVAVKRVIDYAVKIRVKPDRTGVVTDGVKHSMNPFCEIAVEEAVRLKEKKLVKEVIAVSCGPAQCQETIRTALAMGADRGIHVEVPPAEAERLGPLQVARVLAKLAEKEKVDLVLLGKQAIDDDCNQTGQMTAGFLDWPQGTFASQVTLEGDKLKVEREIDGGLETLRLKLPAVVTADLRLNEPRYATLPNIMKAKKKKIEVIKPGDLGVDLTSKLSVISVEDPPQRTAGVKVETTEDLVAKLKEIGRI
[1]
  Total: 5
[2]
  Unique: 5

B4: DDX31 (protein, UniProt Q9H8H2 1-851, looked up)
ATP-dependent DNA helicase …: MAPDLASQRHSESFPSVNSRPNVILPGREGRREGLPPGGGTRGSLVPTRPVPPSPAPLGTSPYSWSRSGPGRGGGAGSSRVPRGVPGPAVCAPGSLLHHASPTQTMAAADGSLFDNPRTFSRRPPAQASRQAKATKRKYQASSEAPPAKRRNETSFLPAKKTSVKETQRTFKGNAQKMFSPKKHSVSTSDRNQEERQCIKTSSLFKNNPDIPELHRPVVKQVQEKVFTSAAFHELGLHPHLISTINTVLKMSSMTSVQKQSIPVLLEGRDALVRSQTGSGKTLAYCIPVVQSLQAMESKIQRSDGPYALVLVPTRELALQSFDTVQKLLKPFTWIVPGVLMGGEKRKSEKARLRKGINILISTPGRLVDHIKSTKNIHFSRLRWLVFDEADRILDLGFEKDITVILNAVNAECQKRQNVLLSATLTEGVTRLADISLHDPVSISVLDKSHDQLNPKDKAVQEVCPPPAGDKLDSFAIPESLKQHVTVVPSKLRLVCLAAFILQKCKFEEDQKMVVFFSSCELVEFHYSLFLQTLLSSSGAPASGQLPSASMRLKFLRLHGGMEQEERTAVFQEFSHSRRGVLLCTDVAARGLDLPQVTWIVQYNAPSSPAEYIHRIGRTARIGCHGSSLLILAPSEAEYVNSLASHKINVSEIKMEDILCVLTRDDCFKGKRWGAQKSHAVGPQEIRERATVLQTVFEDYVHSSERRVSWAKKALQSFIQAYATYPRELKHIFHVRSLHLGHVAKSFGLRDAPRNLSALTRKKRKAHVKRPDLHKKTQSKHSLAEILRSEYSSGMEADIAKVKKQNAPGEPGGRPLQHSLQPTPCFGRGKTLKWRKTQKGVQRDSKTSQKV
[1]
  Total: 5
[2]
  Unique: 5

B5: SND1 (protein, UniProt Q7KZF4 2-910, looked up)
Staphylococcal nuclease …: ASSAQSGGSSGGPAVPTVQRGIIKMVLSGCAIIVRGQPRGGPPPERQINLSNIRAGNLARRAAATQPDAKDTPDEPWAFPAREFLRKKLIGKEVCFTIENKTPQGREYGMIYLGKDTNGENIAESLVAEGLATRREGMRANNPEQNRLSECEEQAKAAKKGMWSEGNGSHTIRDLKYTIENPRHFVDSHHQKPVNAIIEHVRDGSVVRALLLPDYYLVTVMLSGIKCPTFRREADGSETPEPFAAEAKFFTESRLLQRDVQIILESCHNQNILGTILHPNGNITELLLKEGFARCVDWSIAVYTRGAEKLRAAERFAKERRLRIWRDYVAPTANLDQKDKQFVAKVMQVLNADAIVVKLNSGDYKTIHLSSIRPPRLEGENTQDKNKKLRPLYDIPYMFEAREFLRKKLIGKKVNVTVDYIRPASPATETVPAFSERTCATVTIGGINIAEALVSKGLATVIRYRQDDDQRSSHYDELLAAEARAIKNGKGLHSKKEVPIHRVADISGDTQKAKQFLPFLQRAGRSEAVVEYVFSGSRLKLYLPKETCLITFLLAGIECPRGARNLPGLVQEGEPFSEEATLFTKELVLQREVEVEVESMDKAGNFIGWLHIDGANLSVLLVEHALSKVHFTAERSSYYKSLLSAEEAAKQKKEKVWAHYEEQPVEEVMPVLEEKERSASYKPVFVTEITDDLHFYVQDVETGTQLEKLMENMRNDIASHPPVEGSYAPRRGEFCIAKFVDGEWYRARVEKVESPAKIHVFYIDYGNREVLPSTRLGTLSPAFSTRVLPAQATEYAFAFIQVPQDDDARTDAVDSVVRDIQNTQCLLNVEHLSAGCPHVTLQFADSKGDVGLGLVKEGLVMVEVRKEKQFQKVITEYLNAQESAKSARLNLWRYGDFRADDADEFGYSR
[1]
  Total: 5
[2]
  Unique: 5

B6: BSG (protein, UniProt P35613 22-385, looked up)
Basigin: AAGFVQAPLSQQRWVGGSVELHCEAVGSPVPEIQWWFEGQGPNDTCSQLWDGARLDRVHIHATYHQHAASTISIDTLVEEDTGTYECRASNDPDRNHLTRAPRVKWVRAQAVVLVLEPGTVFTTVEDLGSKILLTCSLNDSATEVTGHRWLKGGVVLKEDALPGQKTEFKVDSDDQWGEYSCVFLPEPMGTANIQLHGPPRVKAVKSSEHINEGETAMLVCKSESVPPVTDWAWYKITDSEDKALMNGSESRFFVSSSQGRSELHIENLNMEADPGQYRCNGTSSKGSDQAIITLRVRSHLAALWPFLGIVAEVLVLVTIIFIYEKRRKPEDVLDDDDAGSAPLKSSGQHQNDKGKNVRQRNSS
[1]
  Total: 5
[2]
  Unique: 5

B7: THRAP3 (protein, UniProt Q9Y2W1 2-955, looked up)
Thyroid hormone …: SKTNKSKSGSRSSRSRSASRSRSRSFSKSRSRSRSLSRSRKRRLSSRSRSRSYSPAHNRERNHPRVYQNRDFRGHNRGYRRPYYFRGRNRGFYPWGQYNRGGYGNYRSNWQNYRQAYSPRRGRSRSRSPKRRSPSPRSRSHSRNSDKSSSDRSRRSSSSRSSSNHSRVESSKRKSAKEKKSSSKDSRPSQAAGDNQGDEAKEQTFSGGTSQDTKASESSKPWPDATYGTGSASRASAVSELSPRERSPALKSPLQSVVVRRRSPRPSPVPKPSPPLSSTSQMGSTLPSGAGYQSGTHQGQFDHGSGSLSPSKKSPVGKSPPSTGSTYGSSQKEESAASGGAAYTKRYLEEQKTENGKDKEQKQTNTDKEKIKEKGSFSDTGLGDGKMKSDSFAPKTDSEKPFRGSQSPKRYKLRDDFEKKMADFHKEEMDDQDKDKAKGRKESEFDDEPKFMSKVIGANKNQEEEKSGKWEGLVYAPPGKEKQRKTEELEEESFPERSKKEDRGKRSEGGHRGFVPEKNFRVTAYKAVQEKSSSPPPRKTSESRDKLGAKGDFPTGKSSFSITREAQVNVRMDSFDEDLARPSGLLAQERKLCRDLVHSNKKEQEFRSIFQHIQSAQSQRSPSELFAQHIVTIVHHVKEHHFGSSGMTLHERFTKYLKRGTEQEAAKNKKSPEIHRRIDISPSTFRKHGLAHDEMKSPREPGYKAEGKYKDDPVDLRLDIERRKKHKERDLKRGKSRESVDSRDSSHSRERSAEKTEKTHKGSKKQKKHRRARDRSRSSSSSSQSSHSYKAEEYTEETEEREESTTGFDKSRLGTKDFVGPSERGGGRARGTFQFRARGRGWGRGNYSGNNNNNSNNDFQKRNREEEWDPEYTPKSKKYYLHDDREGEGSDKWVSRGRGRGAFPRGRGRFMFRKSSTSPKWAHDKFSGEEGEIEDDESGTENREEKDNIQPTTE
[1]
  Total: 5
[2]
  Unique: 5

B8: PDHA1 (protein, UniProt P08559 30-390, looked up)
Pyruvate dehydrogenase E1 …: FANDATFEIKKCDLHRLEEGPPVTTVLTREDGLKYYRMMQTVRRMELKADQLYKQKIIRGFCHLCDGQEACCVGLEAGINPTDHLITAYRAHGFTFTRGLSVREILAELTGRKGGCAKGKGGSMHMYAKNFYGGNGIVGAQVPLGAGIALACKYNGKDEVCLTLYGDGAANQGQIFEAYNMAALWKLPCIFICENNRYGMGTSVERAAASTDYYKRGDFIPGLRVDGMDILCVREATRFAAAYCRSGKGPILMELQTYRYHGHSMSDPGVSYRTREEIQEVRSKSDPIMLLKDRMVNSNLASVEELKEIDVEVRKEIEDAAQFATADPEPPLEELGYHIYSSDPPFEVRGANQWIKFKSVS
[1]
  Total: 5
[2]
  Unique: 5
